Source: patent US7928063B2, “Analogs of human growth hormone-releasing hormone, their preparation and use” (Instytut Farmaceutyczny, priority 2001, dated 2011)
At least one peptide structure holds a part that was inferred or is arguable (an end, a ring closure or a residue).

Tested on: GH release
Experiment: Effect of subcutaneous administration on GH release (plasma GH by RIA) in male rats
Type: in vivo, rat
Details: sc.; for Net GH concentration Δ(15 − 30): GH at 15 min. minus GH at 30 min.; for Net GH concentration Δ(15 − 0): GH at 15 min. minus GH before injection

For CC[C@H](C)[C@H](NC(=O)[C@H](C)NC(=O)[C@H](CC(=O)O)NC(=O)[C@H](C)NC(=O)[C@@H](N)Cc1ccc(O)cc1)C(=O)N[C@@H](Cc1ccccc1)C(=O)N[C@H](C(=O)N[C@@H](CC(N)=O)C(=O)N[C@@H](CO)C(=O)N[C@@H](Cc1ccc(O)cc1)C(=O)N[C@@H](CCCNC(=N)N)C(=O)N[C@@H](CCCCN)C(=O)N[C@H](C(=O)N[C@@H](CC(C)C)C(=O)NCC(=O)N[C@@H](CCC(N)=O)C(=O)N[C@@H](CC(C)C)C(=O)N[C@@H](CO)C(=O)N[C@@H](C)C(=O)N[C@@H](CCCNC(=N)N)C(=O)N[C@@H](CCCCN)C(=O)N[C@@H](CC(C)C)C(=O)N[C@@H](CC(C)C)C(=O)N[C@@H](CCC(N)=O)C(=O)N[C@@H](CC(=O)O)C(=O)N[C@H](C(=O)N[C@@H](CCSC)C(=O)N[C@@H](CO)C(=O)N[C@@H](CCCNC(=N)N)C(N)=O)[C@@H](C)CC)C(C)C)[C@@H](C)O [hGH-RH(1-29)-NH2, reference compound], the “Net GH concentration Δ(15 − 30)” value (dose 50 μg/kg) was 40.1 ± 6.7 ng/mL, the “Net GH concentration Δ(15 − 0)” value (dose 50 μg/kg) was 54.6 ± 7.9 ng/mL and the “Net GH concentration Δ(15 − 30)” value (dose 150 μg/kg) was 59.9 ± 16.6 ng/mL. The “Net GH concentration Δ(15 − 0)” value (dose 150 μg/kg) was 135 ± 16.9 ng/mL.
